# Laboratory results taken from PubChem BioAssay AID1508600 (Functional Genomics Laboratory (NCATS/FGL), 2020).
# Among all 53,000 sequences or so, about 3,700 (7%) were called active.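 The calls were made as follows: active = gene knockdowns whose robust z-score for IL-1 alpha signal is at least 2 or at most -2, so actives lie on both sides; inactive = the rest.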 This is one part of the list.
# Test: Components of the Cytosolic LPS Sensing Pathway: Gene Identification via Genome-wide siRNA Screen
# Details: RAW264.7 macrophages, IL-1a HTRF, actives lie on both sides, screened at 100 nM (by protocol), cells primed 5 h with Pam3CSK4 first
# Description: Non-canonical inflammasome activation by cytosolic LPS is a critical component of the host response to Gram-negative bacterial infection, however we lack a comprehensive understanding of the cellular processes that control this pathway. Here we describe a genome-wide siRNA screen to identify genes regulating the mouse macrophage IL-1 alpha response to cytosolic LPS.
# RAW264.7 cells were maintained in complete DMEM media, comprising DMEM with 4.5 g/L glucose, 10% FBS (Gemini Bio-Products, West Sacramento, CA), 2 mM Glutamine (Lonza) and 20 mM HEPES (Lonza), hereafter complete DMEM.
# The RNAi screen was conducted in 384-well format using the Ambion Silencer Mouse Genome siRNA Library (#4391425), which consists of three unique, nonoverlapping, nonpooled siRNAs for each of 17,000 gene targets. siRNA reagents ([…]) were stamped into 384-well white flat-bottom microplates (Corning, 3570) using a Velocity11 VPrep liquid handling system (Agilent) integrated into a BioCel robotic platform (Agilent) in columns 1-22, leaving columns 23-24 empty for negative (Ambion, Negative control #1) and positive (mouse Casp4) controls, respectively. The median value of each plate's negative control column was used to normalize sample wells, and the positive control was used to assess transfection efficiency and assay performance.
# Lipofectamine RNAiMAX Transfection Reagent ([…]; Invitrogen) was added in […] serum-free, antibiotic-free media to plate wells using a Thermo Scientific Matrix WellMate and Microplate Stacker. Plates were incubated for 45 min at room temperature to allow for the sufficient formation of siRNA-lipid complexes. Cells were seeded at a density of 1x10^4 cells per well in 20 microL media containing 20% (vol/vol) FBS without antibiotics. The final concentration of siRNA in each well was 100 nM. Cells were cultured for 48h at 37 degrees C in 5% CO2 before addition of […] of TLR ligand Pam3CSK4 for 5 hours. The medium was then removed, replaced with […] growth media and cell were transfected with […] of LipidA and TransIT-TKO (Mirus) for 24 hour. At the end of the LipidA treatment, […] of supernatant was transferred to a 384 Greiner Bio-one non-binding low volume plate and […] of IL-1a HTRF reagent (Cisbio, 62MIL1APEH) was added and incubated at room temperature overnight. The plates were read on an EnVision plate reader (PerkinElmer). Cell viability was measured by adding 20ul Cell Titer Glo to the original plate and running a luminescence read on the EnVision. The quantified IL-1a signal for each siRNA gene-targeted well was divided by the median of the negative control wells and multiplied by 100 to achieve a negative control normalized value for each well/siRNA. This normalized value was then used to generate a robust z-score by first taking the log of each value and then by subtracting the median and dividing by the […].
row,Sequence,z-score
1,GGAGAAAAAGUAAAUGGUGTT against Psmd7,inactive: -1.65
2,GCUAAGUUGCUUUUCAGUGTT against H4c9,inactive: 0.0187
3,GGGUUUUUUCCAGUCAUCUTT against Nfx1,active: -2.02
4,GCAGAACCAUACUAUUUGCTT against Atg5,inactive: -0.464
5,GAAUAUGGAGGCACCAAAGTT against Hspe1,inactive: 0.00688
6,CCUUAGCCCUCAUUCACAGTT against Lrrc75a,inactive: 0.806
7,CCCUUUCUGUACUCUUAUCTT against Mlx,inactive: 1.76
8,GGAAAGACCACAUUAUUAATT against Orc4,inactive: 0.0347
9,GGAAAUUUGAAGCAAGAAGTT against Mertk,inactive: -1.21
10,CCCAGUCAGAGAUCGAUACTT against Naglu,inactive: 1.75
11,GGAGAUUGACGGUGUGAUGTT against Cacna2d2,inactive: 1.09
12,GGCCUCACACGUCUUAAAATT against Prkcz,inactive: -0.864
13,GGAGAAUGGCAAGAAUGAATT against Gpx1,inactive: -1.79
14,CGUAGACUUAACCUACAAATT against Dync2h1,inactive: 1.88
15,GCAUGUCCUCUAUCUUCUCTT against Vmn1r205,inactive: -1.76
16,GCGGACUCUUUUCAUCAAUTT against Tmem63b,inactive: 1.14
17,GGGUUACCUCCUGACUGUUTT against Olfr930,inactive: -1.9
18,GGAAAGAGAAUAAAUAAGGTT against Amhr2,inactive: -0.923
19,GGAUAUGGAUCUUAUGAAGTT against Lrriq4,inactive: 0.577
20,CCAAAACAUUAACCUGAAGTT against Pla2g6,active: -2.34
21,GGUGACUCAGAGAGUAAAATT against D830050J10Rik,inactive: -0.667
22,GGAUUUGGAAAAAGUGUUUTT against Hprt,inactive: -1.21
23,CGGGAAACAUUAGUGAAUUTT against Mapre2,inactive: 0.383
24,GGGAGAUAAAACCAACUUUTT against Fkbp3,inactive: 1.2
25,AUUGCAUUGUAUUCACUUGTT against Psg22,inactive: 0.777
26,GGUUUGACUGUCAGUAUUUTT against Cds1,inactive: 1.03
27,GGAGUGCUGAUAAAAGAAGTT against Atp5mpl,inactive: -0.952
28,GGAGAUGAAGUUAAAGCGATT against Slc26a6,inactive: 0.619
29,GGAGAGGGAUUAGCCAGUATT against Ank3,inactive: 0.932
30,CGGUACUUAGACUGCAUCATT against Etnppl,inactive: 0.914

# No new results follow: an excerpt of the list.
row,Sequence,z-score
20,CCAAAACAUUAACCUGAAGTT against Pla2g6,active: -2.34
21,GGUGACUCAGAGAGUAAAATT against D830050J10Rik,inactive: -0.667
